No constants are given. Whether binding was seen depends on the method and setting. A result given as binding can be weak or reduced; the word gives no strength.
Target: GST-h-importin α8 (KPNA7) (human) (UniProt A9QM74)
Experiment: pull-down; GST fusions immobilized on GSH beads, 100 pmol FLAG-importin α in 200 μL transport buffer (20 mM HEPES pH 7.3, 110 mM potassium acetate, 2 mM magnesium acetate, 1 mM EGTA, 1 mM DTT) with 0.1% Triton X-100, 4 °C, 1 h; western blot with anti-FLAG and anti-GST (Fig. 1A); both purified

Chains of the proteins cited; added tags and fusions are not shown. Lines headed by an entry give the natural chain unless they say otherwise; changes in a name come on top.
UniProt A9QM74: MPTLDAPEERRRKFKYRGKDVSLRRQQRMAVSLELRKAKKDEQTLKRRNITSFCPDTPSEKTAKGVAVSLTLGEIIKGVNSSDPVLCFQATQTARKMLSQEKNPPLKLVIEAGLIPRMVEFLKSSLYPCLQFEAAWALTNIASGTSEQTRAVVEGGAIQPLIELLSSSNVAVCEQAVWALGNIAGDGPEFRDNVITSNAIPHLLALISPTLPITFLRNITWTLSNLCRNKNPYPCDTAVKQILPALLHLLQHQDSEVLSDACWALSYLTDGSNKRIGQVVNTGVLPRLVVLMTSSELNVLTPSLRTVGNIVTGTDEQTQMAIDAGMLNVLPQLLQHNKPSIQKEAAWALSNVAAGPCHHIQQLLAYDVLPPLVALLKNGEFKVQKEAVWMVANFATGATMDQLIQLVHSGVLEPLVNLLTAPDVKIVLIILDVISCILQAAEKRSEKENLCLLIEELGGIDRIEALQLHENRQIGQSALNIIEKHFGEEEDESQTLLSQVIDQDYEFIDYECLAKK
UniProt O15131: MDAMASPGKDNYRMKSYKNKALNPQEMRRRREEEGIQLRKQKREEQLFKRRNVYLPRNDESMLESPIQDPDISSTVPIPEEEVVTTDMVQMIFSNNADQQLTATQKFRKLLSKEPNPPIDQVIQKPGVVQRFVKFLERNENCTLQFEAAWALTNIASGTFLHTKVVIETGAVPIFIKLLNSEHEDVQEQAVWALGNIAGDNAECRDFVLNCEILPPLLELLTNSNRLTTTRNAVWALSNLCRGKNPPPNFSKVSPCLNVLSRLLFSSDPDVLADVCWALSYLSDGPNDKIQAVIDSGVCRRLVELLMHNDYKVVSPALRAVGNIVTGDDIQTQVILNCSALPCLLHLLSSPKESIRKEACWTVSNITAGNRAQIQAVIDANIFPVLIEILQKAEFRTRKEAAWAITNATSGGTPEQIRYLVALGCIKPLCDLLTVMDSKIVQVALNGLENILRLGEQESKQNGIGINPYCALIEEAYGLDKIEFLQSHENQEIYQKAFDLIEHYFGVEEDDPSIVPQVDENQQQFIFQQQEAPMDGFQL

| binding | Substance |
| --- | --- |
| binds | FLAG-h-importin α7 (KPNA6) (from UniProt O60684) |
| binds | FLAG-h-importin α6 (KPNA5) (from UniProt O15131) |

Source: article PMC4865633
